Common to all, as to assay: EMSA
In series [1] the target is IK S168A (mouse) (UniProt G5E8H3). To be noted: transfected Hek293T nuclear extract; Chemiluminescent EMSA: 10x buffer 100 mM Tris, 500 mM KCl, 10 mM DTT (1x: 10 mM Tris, 50 mM KCl, 1 mM DTT), 2.5% glycerol, 5 mM MgCl2, 50 ng poly(dI-dC), 0.05% NP-40; protein in an extract; residues 1-515; protein details: FLAG (pCMV6-Entry); label: biotin. In general terms: Mobility shift assays separate free from complexed probe on a gel.

Amino acid sequences for entries named in this document (tags omitted). A change or cut given only in a name is not applied to a line headed by its entry.
UniProt G5E8H3, entry or part of it S168A: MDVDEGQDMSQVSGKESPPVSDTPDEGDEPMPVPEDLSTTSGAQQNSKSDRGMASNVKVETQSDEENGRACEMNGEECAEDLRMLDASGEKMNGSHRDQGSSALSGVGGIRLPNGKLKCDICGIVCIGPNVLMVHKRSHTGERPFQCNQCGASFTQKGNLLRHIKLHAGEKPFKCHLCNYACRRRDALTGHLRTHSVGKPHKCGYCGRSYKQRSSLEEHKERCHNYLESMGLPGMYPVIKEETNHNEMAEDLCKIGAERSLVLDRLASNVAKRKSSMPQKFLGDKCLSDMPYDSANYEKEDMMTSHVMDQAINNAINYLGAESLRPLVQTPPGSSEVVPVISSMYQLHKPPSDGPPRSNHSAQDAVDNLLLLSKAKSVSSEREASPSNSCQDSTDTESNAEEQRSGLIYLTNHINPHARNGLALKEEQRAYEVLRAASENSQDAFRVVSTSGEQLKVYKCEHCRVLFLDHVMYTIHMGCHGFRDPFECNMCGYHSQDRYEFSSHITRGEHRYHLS
UniProt G5E8H3, entry or part of it S214A S215A: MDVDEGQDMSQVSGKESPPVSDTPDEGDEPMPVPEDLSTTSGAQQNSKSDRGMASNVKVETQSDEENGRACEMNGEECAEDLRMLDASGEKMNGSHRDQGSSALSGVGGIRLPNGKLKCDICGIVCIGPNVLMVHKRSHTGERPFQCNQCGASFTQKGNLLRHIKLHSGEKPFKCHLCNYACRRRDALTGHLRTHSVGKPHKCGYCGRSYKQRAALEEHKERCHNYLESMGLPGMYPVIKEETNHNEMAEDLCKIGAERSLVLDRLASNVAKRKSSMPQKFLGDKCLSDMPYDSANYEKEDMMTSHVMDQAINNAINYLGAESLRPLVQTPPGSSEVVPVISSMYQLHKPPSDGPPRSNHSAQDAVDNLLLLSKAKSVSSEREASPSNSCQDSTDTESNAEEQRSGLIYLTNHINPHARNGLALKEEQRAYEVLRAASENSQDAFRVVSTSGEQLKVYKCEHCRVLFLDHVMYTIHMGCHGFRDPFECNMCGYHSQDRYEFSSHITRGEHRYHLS
UniProt G5E8H3, entry or part of it: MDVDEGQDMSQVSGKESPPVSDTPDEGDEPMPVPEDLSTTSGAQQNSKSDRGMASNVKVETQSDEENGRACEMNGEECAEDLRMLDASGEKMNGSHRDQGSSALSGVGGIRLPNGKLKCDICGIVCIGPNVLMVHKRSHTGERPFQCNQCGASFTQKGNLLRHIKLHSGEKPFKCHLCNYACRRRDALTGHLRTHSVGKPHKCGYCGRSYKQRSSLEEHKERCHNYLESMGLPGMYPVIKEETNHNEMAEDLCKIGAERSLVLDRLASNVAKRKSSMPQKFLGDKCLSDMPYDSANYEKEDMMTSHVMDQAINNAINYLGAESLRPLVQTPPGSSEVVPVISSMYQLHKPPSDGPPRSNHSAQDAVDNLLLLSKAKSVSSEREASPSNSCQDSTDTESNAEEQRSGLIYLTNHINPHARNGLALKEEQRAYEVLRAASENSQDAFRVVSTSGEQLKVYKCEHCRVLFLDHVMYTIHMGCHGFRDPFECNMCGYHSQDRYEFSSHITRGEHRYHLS
UniProt Q03267: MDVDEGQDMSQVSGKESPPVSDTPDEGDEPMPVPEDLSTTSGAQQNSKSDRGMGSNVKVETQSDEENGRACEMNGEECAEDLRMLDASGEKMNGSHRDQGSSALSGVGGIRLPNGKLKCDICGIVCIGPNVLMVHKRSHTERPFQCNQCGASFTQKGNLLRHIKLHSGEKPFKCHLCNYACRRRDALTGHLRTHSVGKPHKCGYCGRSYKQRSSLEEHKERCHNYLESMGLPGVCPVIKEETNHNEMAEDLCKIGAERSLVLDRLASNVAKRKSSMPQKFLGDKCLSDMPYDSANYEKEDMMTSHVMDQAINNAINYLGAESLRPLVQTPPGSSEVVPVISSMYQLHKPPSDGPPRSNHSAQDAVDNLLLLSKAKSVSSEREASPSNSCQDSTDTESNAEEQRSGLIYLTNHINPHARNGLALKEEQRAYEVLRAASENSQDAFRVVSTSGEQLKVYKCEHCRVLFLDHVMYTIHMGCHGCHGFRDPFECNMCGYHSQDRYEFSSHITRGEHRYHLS

Series [2] concerns the target IK S214A/S215A (mouse) (UniProt G5E8H3). The following applies: transfected Hek293T nuclear extract, binding abolished; Chemiluminescent EMSA: 10x buffer 100 mM Tris, 500 mM KCl, 10 mM DTT (1x: 10 mM Tris, 50 mM KCl, 1 mM DTT), 2.5% glycerol, 5 mM MgCl2, 50 ng poly(dI-dC), 0.05% NP-40; protein in an extract; residues 1-515; protein details: FLAG (pCMV6-Entry); label: biotin.

Series [3] concerns the target IK wild type (mouse) (UniProt G5E8H3). To be noted: transfected Hek293T nuclear extract; Chemiluminescent EMSA: 10x buffer 100 mM Tris, 500 mM KCl, 10 mM DTT (1x: 10 mM Tris, 50 mM KCl, 1 mM DTT), 2.5% glycerol, 5 mM MgCl2, 50 ng poly(dI-dC), 0.05% NP-40; protein in an extract; residues 1-515; protein details: FLAG (pCMV6-Entry); label: biotin.
Series [4] concerns native IK, BCL1 nuclear extract (human). The following applies: Chemiluminescent EMSA: 10x buffer 100 mM Tris, 500 mM KCl, 10 mM DTT (1x: 10 mM Tris, 50 mM KCl, 1 mM DTT), 2.5% glycerol, 5 mM MgCl2, 50 ng poly(dI-dC), 0.05% NP-40, protein in an extract.
The target of series [5] is MBP-IK1 (unphosphorylated) (mouse) (UniProt Q03267). The following applies: 200 ng protein, 1 ng probe; Chemiluminescent EMSA: 10x buffer 100 mM Tris, 500 mM KCl, 10 mM DTT (1x: 10 mM Tris, 50 mM KCl, 1 mM DTT), 2.5% glycerol, 5 mM MgCl2, 50 ng poly(dI-dC), 0.05% NP-40; recombinant protein; protein details: N-terminal MBP (pMAL-C2); label: 32P or 3' biotin.
Series [6] addresses MBP-IK1 phosphorylated by BTK (mouse) (UniProt Q03267). To be noted: BTK-phosphorylated (5 or 30 min kinase assay), augmented versus unphosphorylated; Chemiluminescent EMSA: 10x buffer 100 mM Tris, 500 mM KCl, 10 mM DTT (1x: 10 mM Tris, 50 mM KCl, 1 mM DTT), 2.5% glycerol, 5 mM MgCl2, 50 ng poly(dI-dC), 0.05% NP-40; recombinant protein; protein details: N-terminal MBP (pMAL-C2); label: 32P or 3' biotin.

The target in series [7] is native IK, Hek293T nuclear extract (human) (UniProt Q13422). The following applies: Chemiluminescent EMSA: 10x buffer 100 mM Tris, 500 mM KCl, 10 mM DTT (1x: 10 mM Tris, 50 mM KCl, 1 mM DTT), 2.5% glycerol, 5 mM MgCl2, 50 ng poly(dI-dC), 0.05% NP-40, protein in an extract, label: 32P or 3' biotin.

For part of these data: Where cells or extracts were used, other partners may take part. For part of these data: A negative result means that nothing was seen under these conditions. For part of these data: Construct, isoform or probe ends are uncertain for at least one entry. For part of these data: At least one verdict rests on a figure or table, not on a statement of the authors.

Here are results for three sequences from PMC3747153.

Turning to “TATGGCGAGGAAAACTGAAAAAGGTGGAAAATTTAGAAATGT (double strand) [gamma-satellite A]”, the values for the binding result in series [1], in series [2] and in series [3] were “binds”, “no binding” and “binds”, respectively.
With “TCAGCTTTTGAGAATACCCTGTCA (double strand) [IK-BS5]”, the binding result in series [4] was “no binding”.
Turning to “TCAGCTTTTGGGAATACCCTGTCA (double strand) [IK-BS1]”, the binding result in series [4] (CD19xCD19-stimulated, abolished by excess unlabeled IK-BS1, LFM-A13 prevents the increase, label: 32P or 3' biotin) is on record as “binds”; in series [5] it was “binds”; in series [6], “binds”; in series [7] (cells treated with BTK siRNA 72 h, IK level unchanged), “no binding”; in series [7] (untreated cells), “binds”.
